The other results are listed elsewhere or left out.
target: OsWRKY34 (Oryza sativa, UniProt Q0JBA9 1-250); assay: protein-binding microarray (RPBM); PBS, 2% BSA, 51.3 ng/ul salmon testes DNA, 50 uM zinc acetate, 200 nM TF, 25 C, 1 h; high values mean tight binding; settings: protein: recombinant; tags: N-terminal polyhistidine and DsRed monomer fusion (pET32a); label: CyDye5-dUTP incorporated in the synthesized complementary strand; 3' TTTTT single-stranded linker to array surface; dsDNA, one strand shown
Method in brief: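 Polyhistidine-tagged DsRed fusions of transcription factors, joined at the N-terminus, were expressed in E. coli BL21-CodonPlus and isolated on Ni–NTA. They were incubated at 200 nM for 1 h at 25 °C on a custom Agilent array, double-stranded and BSA-blocked, in PBS with 2% BSA, salmon testes DNA and 50 µM zinc acetate. The binding signal is per-feature fluorescence intensity (arbitrary units) read on an Axon 4000B scanner after washing.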

Chains of the proteins cited; added tags and fusions are not shown.
UniProt Q0JBA9, entry or part of it: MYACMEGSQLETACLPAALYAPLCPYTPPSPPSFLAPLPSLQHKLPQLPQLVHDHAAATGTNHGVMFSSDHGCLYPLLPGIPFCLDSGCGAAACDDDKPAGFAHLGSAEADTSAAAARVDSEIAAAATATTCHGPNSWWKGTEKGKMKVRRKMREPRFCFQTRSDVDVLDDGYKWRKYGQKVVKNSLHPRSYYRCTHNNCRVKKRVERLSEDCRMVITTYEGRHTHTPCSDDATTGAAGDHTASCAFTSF

Sequence | binding signal
TCCCCTTGTACAGCTGTAATACTCCACTTCCACCTAGCGCCGGAGTCACCTAGTGCAG | 8590 fluorescence intensity (a.u.)
AAAACAAGTACGGTACTCTCAACTCGCTAGTCTCAACTTACGGAGTCACCTAGTGCAG | 8580 fluorescence intensity (a.u.)
TTTTAAAACTGCTGGGATTTTGCTTTCTGTTTCTTCAATGCGGAGTCACCTAGTGCAG | 10900 fluorescence intensity (a.u.)
GATTCTCGTCCCAGATCCGCCACTCCCTTCCCCAATTCGCCGGAGTCACCTAGTGCAG | 8210 fluorescence intensity (a.u.)
AGGTGACTCACTCACTTTTCCGGCTTCTTCTCTTCTTTCCCGGAGTCACCTAGTGCAG | 10200 fluorescence intensity (a.u.)
GCTTGTCCACTTCGTTAATTTTTGTTAATTTAGTGCTCGACGGAGTCACCTAGTGCAG | 9690 fluorescence intensity (a.u.)
ACCGCGCCATCAACTCCTCCTTGAGGTCCTCTTCAAAACCCGGAGTCACCTAGTGCAG | 10100 fluorescence intensity (a.u.)
CCAGGTGGTTCCTTGCTCTGCGTCTTCCTTCAAACCGTATCGGAGTCACCTAGTGCAG | 9260 fluorescence intensity (a.u.)
TCATGATGAATCGGGGTGGTGGAGGTTTGCTTGTTATGGTCGGAGTCACCTAGTGCAG | 11000 fluorescence intensity (a.u.)
TACCCCGCGAGACAATGACACATCATCTCACGAGAAGTTACGGAGTCACCTAGTGCAG | 8400 fluorescence intensity (a.u.)
TCCTTTATTTATGTGGTCCTCATGGTCAGTCATGTGCACACGGAGTCACCTAGTGCAG | 8270 fluorescence intensity (a.u.)
ACCATCACATGTCACCACCACTCATGGTCTCATCTTTTCGCGGAGTCACCTAGTGCAG | 8230 fluorescence intensity (a.u.)
ACTTGGTTTGGTGGAGTTTGTGTGTTTATTGCTTTCCTTCCGGAGTCACCTAGTGCAG | 11400 fluorescence intensity (a.u.)
TTGCCAACGCTACAATATATAGGCTGTGTTTAGTTCCACACGGAGTCACCTAGTGCAG | 8040 fluorescence intensity (a.u.)
CGTTAGCTAAGATAGTACTCATATTATGTTTCAGAATATACGGAGTCACCTAGTGCAG | 8130 fluorescence intensity (a.u.)
ACTTCTGTCGATCGCCGCGGCACACCATCAATCACACGTACGGAGTCACCTAGTGCAG | 8090 fluorescence intensity (a.u.)
CTCTCCTCCACATCATCACTCAATCCAATGTGGCATTCTTCGGAGTCACCTAGTGCAG | 8150 fluorescence intensity (a.u.)
TTCCGTACTTTGAACCATCTCCGTACATACTTGTAAAGTTCGGAGTCACCTAGTGCAG | 8500 fluorescence intensity (a.u.)
GCAAATTAGGTAGTTCATGCAAATGCTTCCATGCCTTCGTCGGAGTCACCTAGTGCAG | 8380 fluorescence intensity (a.u.)
TCTAGCGTTTGACCGTCCGTCTTATATGAAATTTTTTTGTCGGAGTCACCTAGTGCAG | 8540 fluorescence intensity (a.u.)
GGGAAACGGAAACCTAGCCGCCACGCTAAGCATCTCGTCTCGGAGTCACCTAGTGCAG | 8110 fluorescence intensity (a.u.)

Sequence | binding signal
ATCGTCGTCTCTCCACCTCTCGCGTTAGCTACTATATATCCGGAGTCACCTAGTGCAG | 11200 fluorescence intensity (a.u.)
GATTAATATTCTATGCGTGACTTGTCTTTTTAATTTTTTTCGGAGTCACCTAGTGCAG | 8950 fluorescence intensity (a.u.)
ATTGCCACCTATAAAATGGGCTTAGGTTAGATGTTGTGTTCGGAGTCACCTAGTGCAG | 8940 fluorescence intensity (a.u.)
TCCACTGCTTGCTGTCGATCGAGTGGAAGAGGCGGGCGGGCGGAGTCACCTAGTGCAG | 10200 fluorescence intensity (a.u.)
GGGCTCCTCAATATATGGGCTTGAACATTTTTCTCATTTTCGGAGTCACCTAGTGCAG | 8140 fluorescence intensity (a.u.)
TCTGTACTTTATTTTTATGGTTGGATGCAAATATAAGGGGCGGAGTCACCTAGTGCAG | 11700 fluorescence intensity (a.u.)
CATCTTTTGCATTTGTACTAATATGTTATGTTTGAGTATACGGAGTCACCTAGTGCAG | 8770 fluorescence intensity (a.u.)
GTAGCTGAAGTGAGTGGGGAGTTGACTTGGGAAGATGACTCGGAGTCACCTAGTGCAG | 9910 fluorescence intensity (a.u.)
AACCAATTCAGTCAGATACATCGCGTACCTTTCACATTATCGGAGTCACCTAGTGCAG | 9700 fluorescence intensity (a.u.)
GGTGTATTTTATCGGCATACTCAATATACACGAAGGCAAACGGAGTCACCTAGTGCAG | 8080 fluorescence intensity (a.u.)
CATGGTATTTGTCTCTTTTAATTTTCACCCTCTGGGTTGCCGGAGTCACCTAGTGCAG | 12700 fluorescence intensity (a.u.)
AAATACAGGATATAAACGGACGTGTGGTCTCGTGGATCGGCGGAGTCACCTAGTGCAG | 10700 fluorescence intensity (a.u.)
AACATATGAAGTTCTGACTCTGCTGTGTTTTACTTCATATCGGAGTCACCTAGTGCAG | 8510 fluorescence intensity (a.u.)
AATGGTGTTGTTCTGTTTCTACCTTTTATTCAGGTGCTCGCGGAGTCACCTAGTGCAG | 16200 fluorescence intensity (a.u.)
ACACGATGGCCATCCTTCATCAGATTCTAGTGCGATCATCCGGAGTCACCTAGTGCAG | 8290 fluorescence intensity (a.u.)
CTTTAATGCTTATCACAAGAACTGGTGGTATATGTGACTCCGGAGTCACCTAGTGCAG | 9340 fluorescence intensity (a.u.)
GGATTGGGATTTTTGGGAGGGGAGGAGAGGAACCCTAATCCGGAGTCACCTAGTGCAG | 10600 fluorescence intensity (a.u.)
GTGAAGCTGACATGTGGGTTTTATAGGTTTTTTTTTTCAGCGGAGTCACCTAGTGCAG | 11000 fluorescence intensity (a.u.)
TTTACACTTCAATTCTTATCAGAATCCTGTCTTTTTTATACGGAGTCACCTAGTGCAG | 8180 fluorescence intensity (a.u.)
ACTCCCTTGCTTTTTCTCGCTATCAATCACAATAATCCAACGGAGTCACCTAGTGCAG | 9590 fluorescence intensity (a.u.)
GTTGTAATGGGTACTTTGTGATCTCATCCGTTGGAATAACCGGAGTCACCTAGTGCAG | 8450 fluorescence intensity (a.u.)

In another format: entries from further up.
Sequence,binding signal
GGGCTCCTCAATATATGGGCTTGAACATTTTTCTCATTTTCGGAGTCACCTAGTGCAG,8140 fluorescence intensity (a.u.)
TCTGTACTTTATTTTTATGGTTGGATGCAAATATAAGGGGCGGAGTCACCTAGTGCAG,11700 fluorescence intensity (a.u.)

Source: publication PMC7819943, “Rice protein-binding microarrays: a tool to detect cis-acting elements near promoter regions in rice”
